Assay results reported in the supplement of paper PMC9744312.
Structures can show the parent of a compound that is named as a salt. Some of the results follow. Single values of this set are uncertain.

The compounds below were run on Peyronie's disease tunica albuginea primary fibroblasts (assay: inhibition of TGF-beta1-induced alpha-SMA expression (myofibroblast transformation), relative to TGF-beta1-only and untreated controls; higher = stronger inhibition of myofibroblast transformation). Settings: 10 µM; TGF-beta1 10 ng/mL; 72 h.

| SMILES | inhibition of TGF-beta1-induced alpha-SMA expression [%] |
| --- | --- |
| Cc1ccc(-n2nc(C(C)(C)C)cc2NC(=O)Nc2ccc(OCCN3CCOCC3)c3ccccc23)cc1 [Doramapimod (BIRB 796)] | 18.1 |
| Cc1cc(-c2ccc(/N=N/c3ccc4c(S(=O)(=O)O)cc(S(=O)(=O)O)c(N)c4c3O)c(C)c2)ccc1/N=N/c1ccc2c(S(=O)(=O)O)cc(S(=O)(=O)O)c(N)c2c1O [Evans Blue] | 7.3 |
| CN(C)Cc1ccc(S(=O)(=O)n2ccc(/C=C/C(=O)NO)c2)cc1 [Resminostat] | > 100 |
| CC[C@H](C)C[C@H](C)CCCCCCCCC(=O)N[C@H]1C[C@@H](O)[C@@H](NCCN)NC(=O)[C@@H]2[C@@H](O)CCN2C(=O)[C@H]([C@H](O)CCN)NC(=O)[C@H]([C@H](O)[C@@H](O)c2ccc(O)cc2)NC(=O)[C@@H]2C[C@@H](O)CN2C(=O)[C@H]([C@@H](C)O)NC1=O [Caspofungin Acetate] | 29.1 |
| CN(C)CC/C=C1/c2ccccc2COc2ccc(CC(=O)O)cc21 [Olopatadine HCl] | -13 |
| CC(C(=O)O)c1ccc(C(=O)c2ccccc2)s1 (stereo not drawn) [Tiaprofenic acid] | 34.5 |
| O=C1CCCC(=O)C1C(=O)c1ccc(C(F)(F)F)cc1[N+](=O)[O-] [Nitisinone] | -5.84 |
| C=CC(=O)Nc1cccc(Oc2nc(Nc3ccc(N4CCN(C)CC4)cc3)nc3ccsc23)c1 | > 100 |
| C[C@H](NC(=O)C(=O)Nc1ccccc1C(C)(C)C)C(=O)N[C@@H](CC(=O)O)C(=O)COc1c(F)c(F)cc(F)c1F [Emricasan] | 11.4 |
| CC(=O)N(CC(O)CN(C(C)=O)c1c(I)c(C(=O)NCC(O)CO)c(I)c(C(=O)NCC(O)CO)c1I)c1c(I)c(C(=O)NCC(O)CO)c(I)c(C(=O)NCC(O)CO)c1I (stereo not drawn) [Iodixanol] | 22.6 |
| CC(=O)OCC(=O)[C@H]1CC[C@H]2[C@@H]3CCC4=CC(=O)CC[C@]4(C)[C@H]3CC[C@]12C [Deoxycorticosterone acetate] | 51.1 |
| C#C[C@]1(O)CC[C@H]2[C@@H]3CCC4=CC(=O)CC[C@@H]4[C@H]3CC[C@@]21CC [Levonorgestrel] | 31.4 |
| N=C(N)NCCN1CCCCCCC1 [Guanethidine Sulfate] | 6.05 |
| N=C(N)NCCN1CCCCCCC1 [Guanethidine Monosulfate] | -5.53 |
| CC1(C)[C@@H](OC(=O)CCC(=O)O)CC[C@]2(C)[C@H]3C(=O)C=C4[C@@H]5C[C@@](C)(C(=O)O)CC[C@]5(C)CC[C@@]4(C)[C@]3(C)CC[C@@H]12 [Carbenoxolone Sodium] | -9.92 |
| CC(CN(C)C)CN1c2ccccc2Sc2ccccc21 (stereo not drawn) [Alimemazine Tartrate] | 87.7 |
| C[C@@H]1COC(Nc2ccc3ncnc(Nc4ccc(OCc5nccs5)c(Cl)c4)c3c2)=N1 [Varlitinib] | 53.9 |
| C[C@]1(Cn2ccnn2)[C@H](C(=O)O)N2C(=O)C[C@H]2S1(=O)=O [Tazobactam] | 13.9 |
| CC[C@@H](CO)NCCN[C@@H](CC)CO [Ethambutol 2HCl] | 5.44 |
| CC(C)C[C@H](NC(=O)CNC(=O)c1cc(Cl)ccc1Cl)B1OC(=O)C(CC(=O)O)(CC(=O)O)O1 [Ixazomib Citrate (MLN9708)] | > 100 |
| CCN(CC)CCOCCOC(=O)C(CC)(CC)c1ccccc1 [Oxeladin Citrate] | 6.66 |
| CCCOc1ccc(C(=O)OCCN(CC)CC)cc1N [Proparacaine HCl] | 3.84 |
| COC(=O)Nc1nc2cc([S+]([O-])c3ccccc3)ccc2[nH]1 (stereo not drawn) [Oxfendazole] | 13.8 |

For reference, some entries already given.

| SMILES | inhibition of TGF-beta1-induced alpha-SMA expression [%] |
| --- | --- |
| C[C@@H]1COC(Nc2ccc3ncnc(Nc4ccc(OCc5nccs5)c(Cl)c4)c3c2)=N1 [Varlitinib] | 53.9 |
| C[C@]1(Cn2ccnn2)[C@H](C(=O)O)N2C(=O)C[C@H]2S1(=O)=O [Tazobactam] | 13.9 |
| CC[C@@H](CO)NCCN[C@@H](CC)CO [Ethambutol 2HCl] | 5.44 |

Carrying on.

| SMILES | inhibition of TGF-beta1-induced alpha-SMA expression [%] |
| --- | --- |
| COc1ccccc1OCC(O)COC(N)=O (stereo not drawn) [Methocarbamol] | 15.2 |
| Nc1ccn([C@@H]2CS[C@H](CO)O2)c(=O)n1 [Lamivudine] | 47.2 |
| CCc1c(Cl)c(O)c(Cl)c(O)c1C(=O)O[C@H]1[C@H](O)[C@H](OC)[C@H](OC/C2=C\C=C\C[C@H](O)/C(C)=C/[C@H](CC)[C@@H](O[C@@H]3OC(C)(C)[C@@H](OC(=O)C(C)C)[C@H](O)[C@@H]3O)/C(C)=C/C(C)=C/C[C@@H]([C@@H](C)O)OC2=O)O[C@@H]1C [Fidaxomicin] | 20.6 |
| CO/N=C(\C(=O)N[C@@H]1C(=O)N2C(C(=O)OC(C)OC(C)=O)=C(COC(N)=O)CS[C@H]12)c1ccco1 (stereo partly drawn) [Cefuroxime axetil] | -9.25 |
| NC(=O)[C@@H]1CCCN1C(=O)[C@H](Cc1c[nH]cn1)NC(=O)[C@@H]1CCC(=O)N1 [Protirelin] | -35.2 |
| CN(C)CC(c1ccc(O)cc1)C1(O)CCCCC1 (stereo not drawn) [Desvenlafaxine Succinate] | -34.1 |
| CN(C)CC(c1ccc(O)cc1)C1(O)CCCCC1 (stereo not drawn) [Desvenlafaxine] | -22.8 |
| O=C(C[S+]([O-])Cc1ccco1)NC/C=C\COc1cc(CN2CCCCC2)ccn1 (stereo not drawn) [Lafutidine] | 13.4 |
| C#CCC(Cc1cnc2nc(N)nc(N)c2n1)c1ccc(C(=O)N[C@@H](CCC(=O)O)C(=O)O)cc1 (stereo partly drawn) [Pralatrexate] | 3.47 |
| O=C(c1ccccc1)c1ccc2n1CCC2C(=O)O (stereo not drawn) [Ketorolac] | 22.8 |
| COc1c(N2CCNC(C)C2)c(F)cc2c(=O)c(C(=O)O)cn(C3CC3)c12 (stereo not drawn) [Gatifloxacin] | -12.6 |
| CN(C)C/C=C/C(=O)Nc1cc2c(Nc3ccc(F)c(Cl)c3)ncnc2cc1O[C@H]1CCOC1 [Afatinib (BIBW2992)] | 98.9 |
| CN(C)C/C=C/C(=O)Nc1cc2c(Nc3ccc(F)c(Cl)c3)ncnc2cc1O[C@H]1CCOC1 [Afatinib (BIBW2992) Dimaleate] | > 100 |
| CCN[C@@H]1C[C@H](N)[C@@H](O[C@H]2OC(CN)=CC[C@H]2N)[C@H](O)[C@H]1O[C@H]1OC[C@](C)(O)[C@H](NC)[C@H]1O [Netilmicin Sulfate] | 3.96 |
| CC(C)(O)c1ccccc1CC[C@@H](SCC1(CC(=O)O)CC1)c1cccc(/C=C/c2ccc3ccc(Cl)cc3n2)c1 [Montelukast Sodium] | -16.5 |
| O=C1NC(=O)C(c2ccccc2)(c2ccccc2)N1 [Phenytoin] | 15.6 |
| CC(=O)OCC[N+](C)(C)C [Acetylcholine iodide] | 16.5 |
| OCCN1C[C@H](O)[C@@H](O)[C@H](O)[C@H]1CO [Miglitol] | 18.7 |
| S=C(NCc1ccc2c(c1)OCO2)N1CCN(c2ncnc3c2oc2ccccc23)CC1 [Amuvatinib (MP-470)] | 0.0874 |
| Cn1cnc([N+](=O)[O-])c1Sc1ncnc2[nH]cnc12 [Azathioprine] | 1.42 |
| CC(=O)Oc1cc2c(s1)CCN(C(C(=O)C1CC1)c1ccccc1F)C2 (stereo not drawn) [Prasugrel] | 44.5 |
| CC(=O)Oc1cc2c(s1)CCN(C(C(=O)C1CC1)c1ccccc1F)C2 (stereo not drawn) [Prasugrel Hydrochloride] | > 100 |
| CC(C)C(=O)Nc1ccc([N+](=O)[O-])c(C(F)(F)F)c1 [Flutamide] | 25 |

| SMILES | inhibition of TGF-beta1-induced alpha-SMA expression [%] |
| --- | --- |
| C#C[C@]1(O)CC[C@H]2[C@@H]3CCC4=CCCC[C@@H]4[C@H]3C(=C)C[C@@]21CC [Desogestrel] | 49.9 |
| CN1CCN(c2cc3c(cc2F)c(=O)c(C(=O)O)cn3-c2ccc(F)cc2)CC1 [Difloxacin HCl] | -4.09 |
| O=C(O)CCCC[C@@H]1SC[C@@H]2NC(=O)N[C@@H]21 [Biotin (Vitamin B7)] | -7.36 |
| COCC(=O)Nc1c(I)c(C(=O)NCC(O)CO)c(I)c(C(=O)N(C)CC(O)CO)c1I (stereo not drawn) [Iopromide] | 86.2 |
| CCOC(=O)Nc1ccc(NCc2ccc(F)cc2)nc1N [Flupirtine maleate] | 35.8 |
| C[C@H](CCC(=O)O)[C@H]1CC[C@H]2[C@@H]3CC[C@@H]4C[C@H](O)CC[C@]4(C)[C@H]3CC[C@]12C [Lithocholic acid] | 17.1 |
| N[C@@H](CSCCCO)C(=O)O [Fudosteine] | 17.4 |
| CC(=O)SCC(Cc1ccccc1)C(=O)NCC(=O)OCc1ccccc1 (stereo not drawn) [Racecadotril] | -2.59 |
| COC(=O)C1=C(C)NC(C)=C(C(=O)OC(C)C)C1c1cccc2nonc12 (stereo not drawn) [Isradipine] | -2.53 |
| CCNC(=O)[C@@H]1CCCN1C(=O)[C@H](CCCN=C(N)N)NC(=O)[C@H](CC(C)C)NC(=O)[C@@H](C)NC(=O)[C@H](Cc1ccc(O)cc1)NC(=O)[C@H](CO)NC(=O)[C@H](Cc1c[nH]c2ccccc12)NC(=O)[C@H](Cc1cnc[nH]1)NC(=O)[C@@H]1CCC(=O)N1 [Alarelin Acetate] | 14.9 |
| CCOC(=O)[C@H](CCc1ccccc1)N[C@@H](C)C(=O)N1Cc2cc(OC)c(OC)cc2C[C@H]1C(=O)O [Moexipril HCl] | 14.9 |
| CN1CCC(OC(c2ccccc2)c2ccccc2)CC1 [Diphenylpyraline HCl] | 25.9 |
| O=c1[nH]cnc2[nH]ncc12 [Allopurinol Sodium] | 17 |
| C[N+](C)(C)CCO.[Cl-] [Choline Chloride] | -20.9 |
| C/C=C1\[C@H]2C=C(C)C[C@]1(N)c1ccc(=O)[nH]c1C2 [(-)-Huperzine A (HupA)] | 10.7 |
| Clc1ccc(Nc2nnc(Cc3ccncc3)c3ccccc23)cc1 [Vatalanib (PTK787) 2HCl] | -53 |
| O=c1[nH]cnc2c1ncn2[C@H]1CC[C@@H](CO)O1 [Didanosine] | 40 |
| CN(C/C=C/C#CC(C)(C)C)Cc1cccc2ccccc12 [Terbinafine] | 17.5 |
| CN(C/C=C/C#CC(C)(C)C)Cc1cccc2ccccc12 [Terbinafine HCl] | 22.1 |
| Nc1nc(O)c2ncn(CCC(CO)CO)c2n1 [Penciclovir] | -23.9 |
| Fc1ccc([C@@H]2CCNC[C@H]2COc2ccc3c(c2)OCO3)cc1 [Paroxetine mesylate] | 57.6 |
| Fc1ccc([C@@H]2CCNC[C@H]2COc2ccc3c(c2)OCO3)cc1 [Paroxetine HCl] | 31.8 |
